# Results reported in article PMC12040169 (PLOS Biology, 2025).
# Some of the results follow.
# Tested on: T1, CTL2-GFP (C. trachomatis L2/434/Bu, GFP-expressing)
# T1 construct: L2/434/Bu, GFP-expressing
# Design: species or system HeLa; Intracellular C. trachomatis growth in HeLa cells, bulk GFP fluorescence relative to DMSO
# Conditions: bulk GFP, single well; 28.5 h, 10 µM; inhibitor
row,SMILES,% of control remaining
1,NC(=O)c1c(NC(=S)NC(NC(=O)c2ccco2)C(Cl)(Cl)Cl)sc2c1CCCC2 (stereo not shown) [CBK261055],89.4268%
2,COc1ccc(C2CCN(Cc3ccncc3)CC2)cc1 [CBK283563],82.7154%
3,C[C@@H](Nc1nccnc1-c1ccc(C(=O)N2CCOCC2)cc1)c1ccccc1 [CBK037058],89.8053%
4,OC12CCCCC1CN(Cc1nc3ccccc3[nH]1)CC2 (stereo not shown) [CBK282995],111.137%
5,COc1ccc([C@@]23CC[C@@H](NC(=O)Nc4cccc5nsnc45)C[C@@H]2N(C)CC3)cc1OC [CBK038874T],96.0201%
6,Cc1ccc(C(=O)Nc2cccc(CCc3ccncc3)c2)c(=O)n1C [CBK285556],89.5393%
7,Nc1ncc(-c2cncnc2)nc1-c1ccc(CCC(=O)O)cc1 [CBK064120],201.902%
8,CCn1c2cc(C)oc2c2cnn(CC(=O)N3CCCC3)c(=O)c21 [CBK284215],121.794%
9,Cc1ccc(C2CCCN2C(=O)c2cccn(CC(=O)Nc3ccc(F)cc3)c2=O)cc1C (stereo not shown) [CBK286528],133.035%
10,COc1ccc(C2Oc3cccnc3N(CCCN(C)C)C2=O)cc1 (stereo not shown) [CBK007694],145.208%
11,O=C(O)COc1ccc(Br)cc1/C=N/Nc1ccccn1 [CBK262369],100.978%
12,NNC(=O)C(NC(=O)c1ccccc1)c1n[nH]c(=O)c2ccccc12 (stereo not shown) [CBK261144],100.903%
13,CCOc1ccc(-c2ccnc(N3CCCC(C)(O)C3)n2)cc1C(=O)O (stereo not shown) [CBK307652],116.594%
14,CC(NC(=O)C1C2CCC(CC2)C1C(=O)O)c1ccncc1 (stereo not shown) [CBK287061],124.387%
15,Clc1ccc(Cl)c(-c2ccc(CNCCCN3CCOCC3)o2)c1 [CBK278190C],141.552%
16,CN1CCN(C(C(=O)O)c2c[nH]c3cc(OCc4ccccc4)ccc23)CC1 (stereo not shown) [CBK286654],146.251%
17,Nc1nc(-c2ccc(Cl)cc2)c(CC(=O)O)s1 [CBK287188],136.605%
18,CC(C)[C@@H](CO)Nc1nc(-c2cccc(Br)c2)cnc1N [CBK063758],88.5512%
19,O=C(Cc1csc(-c2ccc(Cl)cc2)n1)Nc1cccnc1 [CBK107300],102.071%
20,COc1nc2ccccc2nc1CCc1nc(-c2ccccc2)no1 [CBK269840],154.711%
21,CC(C)Nc1ccc(C(=O)N2CCC(N3CCOCC3)CC2)cn1 [CBK304353],139.418%
22,O=C(c1ccc2ccccc2c1)C12CN3CN(CN(C3)C1)C2 [CBK009031],125.722%

# In the list so far, 2 have bromine:
row,SMILES,% of control remaining
11,O=C(O)COc1ccc(Br)cc1/C=N/Nc1ccccn1 [CBK262369],100.978%
18,CC(C)[C@@H](CO)Nc1nc(-c2cccc(Br)c2)cnc1N [CBK063758],88.5512%
